# Assay results taken from patent publication US9433228B2, “Method for the production of multiple-unsaturated fatty acids in transgenic organisms” (BASF Plant Science GmbH, priority 2003, dated 2016).
# For at least one compound, name, drawing or mass did not settle the structure.
# System: PtELO6 (Δ6-elongase)
# Experiment: PtELO6 expressed in yeast, feeding experiment
# Settings: fed to yeast with pYES2-PtELO6
structure (smiles),measurement,value
"CC/C=C\C/C=C\C/C=C\C/C=C\C/C=C\CCCC(=O)O [20:5^Δ5,8,11,14,17, eicosapentaenoic acid]",conversion of fatty acid fed,not converted
